This note sets out measurements from PMC9800341, “THOC5 complexes with DDX5, DDX17, and CDK12 to regulate R loop structures and transcription elongation rate”.

For one data set, the target named is T1, THOC5-FLAG (UniProt Q13769).
T1 sequence (looked up, limits assumed): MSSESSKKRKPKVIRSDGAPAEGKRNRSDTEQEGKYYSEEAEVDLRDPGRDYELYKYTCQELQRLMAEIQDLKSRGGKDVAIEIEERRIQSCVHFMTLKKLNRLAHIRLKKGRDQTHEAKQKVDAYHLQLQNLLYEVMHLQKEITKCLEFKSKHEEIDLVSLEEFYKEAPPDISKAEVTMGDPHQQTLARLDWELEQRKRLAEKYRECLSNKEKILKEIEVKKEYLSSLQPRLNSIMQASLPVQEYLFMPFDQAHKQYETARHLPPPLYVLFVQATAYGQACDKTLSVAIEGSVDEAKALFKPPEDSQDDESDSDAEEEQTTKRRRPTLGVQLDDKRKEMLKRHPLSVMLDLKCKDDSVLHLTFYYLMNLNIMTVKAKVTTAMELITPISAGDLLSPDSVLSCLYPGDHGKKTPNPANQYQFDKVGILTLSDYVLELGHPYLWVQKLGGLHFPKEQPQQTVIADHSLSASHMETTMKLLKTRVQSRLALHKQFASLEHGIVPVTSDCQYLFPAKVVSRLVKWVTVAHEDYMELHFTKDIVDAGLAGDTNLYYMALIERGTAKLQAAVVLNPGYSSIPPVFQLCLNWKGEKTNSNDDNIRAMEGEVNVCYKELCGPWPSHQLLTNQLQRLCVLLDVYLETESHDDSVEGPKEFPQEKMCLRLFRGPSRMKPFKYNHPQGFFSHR
The data set is described as follows: streptavidin pull-down. The settings on record: only slight interaction; pull-downs: 4 C overnight or 37 C 2 h (Fig S5A: 4 h); recombinant protein; protein details: C-terminal FLAG (DYK); label: 5' biotin on DNA or RNA strand; DNA:RNA hybrid.

In a further data set the target is GST-THOC6 RK mutant (UniProt Q86W42). The data set is described as follows: streptavidin pull-down. The settings on record: much weaker than WT; pull-downs: 4 C overnight or 37 C 2 h (Fig S5A: 4 h); recombinant protein; protein details: GST (pGEX-4T1), FLAG; label: 5' biotin on DNA or RNA strand; DNA:RNA hybrid.
The next data set addresses T2, GST-THOC6 WT (UniProt Q86W42).
T2 sequence (looked up, limits assumed): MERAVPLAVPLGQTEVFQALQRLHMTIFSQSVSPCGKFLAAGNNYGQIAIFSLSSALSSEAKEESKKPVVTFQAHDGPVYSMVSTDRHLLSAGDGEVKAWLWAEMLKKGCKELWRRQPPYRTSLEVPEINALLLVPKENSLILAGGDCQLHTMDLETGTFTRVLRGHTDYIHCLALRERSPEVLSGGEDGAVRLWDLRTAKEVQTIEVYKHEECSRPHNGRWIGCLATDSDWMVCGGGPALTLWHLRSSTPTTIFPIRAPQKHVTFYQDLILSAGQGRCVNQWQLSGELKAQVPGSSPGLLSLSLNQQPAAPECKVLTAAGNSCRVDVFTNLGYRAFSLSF
In words: GST pull-down. To be noted: RNase H-treated C4D or ssDNA; pull-downs: 4 C overnight or 37 C 2 h (Fig S5A: 4 h); recombinant protein; protein details: GST (pGEX-4T1), FLAG; label: 5' …; single-stranded DNA.

The exact form of at least one protein or probe is not confirmed. The comparison behind a weaker result is the experiment's own reference, which may not be listed here. For some of these results: Protein sequences can lack the tags named with them.

In the case of “CCCGGGAGGCGGAGGTTGCAGTGAACCAAGATCGCGCCATTGCACTCCAGCCTGGG / CCCAGGCUGGAGUGCAAUGGCGCGAUCUUGGUUCACUGCAACCUCCGCCUCCCGGG [C4D (C4-ssDNA + C4-ssRNA)]”, the binding result with THOC5-FLAG and with GST-THOC6 RK mutant was “binds more weakly” each time.
As to “CGCCCTCCCGCCCCCTCGGGGCCCCGCCCCTGGGCCTCTCAGGCCCCTCCCCTGCGCTCC / GGAGCGCAGGGGAGGGGCCUGAGAGGCCCAGGGGCGGGGCCCCGAGGGGGCGGGAGGGCG [OSD (OS4D; OS-ssDNA + OS-ssRNA)]”, the binding result with THOC5-FLAG is on record as “binds more weakly”.
Regarding “CCCGGGAGGCGGAGGTTGCAGTGAACCAAGATCGCGCCATTGCACTCCAGCCTGGG [C4-ssDNA (C4D after RNase H)]”, the binding result in the data set with GST-THOC6 WT is recorded as “binds more weakly”.
